Test results taken from publication PMC10094921 (International Journal of Molecular Sciences, 2023).

Experiment: general procedure: Fmoc solid-phase peptide synthesis; Rink Amide-MBHA resin (substitution 0.285 mmol/g and 0.36 mmol/g); HCTU/HATU with DIEA
Conditions: whole synthesis, 214 nm, scale of the general procedure 0.1 or 0.2 mmol

Point of comparison: “PEPTIDE1{[Pal].[PEG6].V.I.K.L.S.G.R.E.L.V.R.A.Q.I.A.I.S.G.M.S.T.W.S.K.R.S.L.[am]}$$$$V2.0”, “final HPLC purity” value 99.92%. Against it:
- PEPTIDE1{K.[PEG12].V.I.K.L.S.G.R.E.L.V.R.A.Q.I.A.I.S.G.M.S.T.W.S.K.R.S.L.[am]}|PEPTIDE2{[Pal].[gGlu]}$PEPTIDE1,PEPTIDE2,1:R3-2:R2$$$V2.0 — lower, 99.72%
- PEPTIDE1{E.Y.E.K.E.Y.E.V.I.K.L.S.G.R.E.L.V.R.A.Q.I.A.I.S.G.M.S.T.W.S.K.R.S.L.[am]}|PEPTIDE2{[Pal]}$PEPTIDE1,PEPTIDE2,4:R3-1:R2$$$V2.0 — lower, 97.68%

Strings that start with PEPTIDE1 are HELM notation: dots part the residues, brackets hold end groups and non-standard residues.
